Our source for the NP40-soluble protein abundance values is the supplement of paper PMC6411743.

Protein sequences, listed by entry. Tags and fused reporters are not part of them. Lines headed by an entry give the natural chain unless they say otherwise; changes in a name come on top.
UniProt P61604, whole entry: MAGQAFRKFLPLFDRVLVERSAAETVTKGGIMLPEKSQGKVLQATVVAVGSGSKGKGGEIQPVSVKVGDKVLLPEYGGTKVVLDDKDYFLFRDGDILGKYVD
UniProt P61129: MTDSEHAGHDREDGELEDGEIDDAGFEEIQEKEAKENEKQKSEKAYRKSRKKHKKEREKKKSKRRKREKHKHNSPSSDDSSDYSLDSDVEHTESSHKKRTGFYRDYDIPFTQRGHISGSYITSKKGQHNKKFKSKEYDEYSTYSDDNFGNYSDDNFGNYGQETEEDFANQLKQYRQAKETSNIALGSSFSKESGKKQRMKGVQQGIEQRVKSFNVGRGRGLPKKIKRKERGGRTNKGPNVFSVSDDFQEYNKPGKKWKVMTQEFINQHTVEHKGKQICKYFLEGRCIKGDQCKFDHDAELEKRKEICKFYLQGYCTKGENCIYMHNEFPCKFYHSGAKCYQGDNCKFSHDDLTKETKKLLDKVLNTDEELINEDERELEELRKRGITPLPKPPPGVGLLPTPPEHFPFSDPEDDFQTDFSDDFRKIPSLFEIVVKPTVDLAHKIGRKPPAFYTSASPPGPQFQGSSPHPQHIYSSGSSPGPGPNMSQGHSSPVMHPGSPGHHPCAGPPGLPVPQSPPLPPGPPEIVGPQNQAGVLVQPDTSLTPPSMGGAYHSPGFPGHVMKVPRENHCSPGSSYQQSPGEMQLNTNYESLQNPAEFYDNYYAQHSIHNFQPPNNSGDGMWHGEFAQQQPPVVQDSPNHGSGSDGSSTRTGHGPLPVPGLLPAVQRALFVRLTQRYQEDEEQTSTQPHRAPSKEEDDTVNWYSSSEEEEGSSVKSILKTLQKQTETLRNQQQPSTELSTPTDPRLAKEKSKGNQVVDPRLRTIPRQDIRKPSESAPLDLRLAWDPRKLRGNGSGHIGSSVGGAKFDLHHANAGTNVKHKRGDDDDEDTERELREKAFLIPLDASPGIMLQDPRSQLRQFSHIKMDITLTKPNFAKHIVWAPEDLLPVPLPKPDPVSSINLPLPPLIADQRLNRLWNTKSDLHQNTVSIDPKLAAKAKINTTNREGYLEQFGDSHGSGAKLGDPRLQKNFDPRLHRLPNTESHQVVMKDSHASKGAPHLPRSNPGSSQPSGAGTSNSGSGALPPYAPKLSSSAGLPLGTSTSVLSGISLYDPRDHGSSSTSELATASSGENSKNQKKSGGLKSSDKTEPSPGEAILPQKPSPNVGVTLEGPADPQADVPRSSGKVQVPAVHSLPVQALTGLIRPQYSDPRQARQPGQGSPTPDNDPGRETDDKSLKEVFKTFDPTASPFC
UniProt Q04721: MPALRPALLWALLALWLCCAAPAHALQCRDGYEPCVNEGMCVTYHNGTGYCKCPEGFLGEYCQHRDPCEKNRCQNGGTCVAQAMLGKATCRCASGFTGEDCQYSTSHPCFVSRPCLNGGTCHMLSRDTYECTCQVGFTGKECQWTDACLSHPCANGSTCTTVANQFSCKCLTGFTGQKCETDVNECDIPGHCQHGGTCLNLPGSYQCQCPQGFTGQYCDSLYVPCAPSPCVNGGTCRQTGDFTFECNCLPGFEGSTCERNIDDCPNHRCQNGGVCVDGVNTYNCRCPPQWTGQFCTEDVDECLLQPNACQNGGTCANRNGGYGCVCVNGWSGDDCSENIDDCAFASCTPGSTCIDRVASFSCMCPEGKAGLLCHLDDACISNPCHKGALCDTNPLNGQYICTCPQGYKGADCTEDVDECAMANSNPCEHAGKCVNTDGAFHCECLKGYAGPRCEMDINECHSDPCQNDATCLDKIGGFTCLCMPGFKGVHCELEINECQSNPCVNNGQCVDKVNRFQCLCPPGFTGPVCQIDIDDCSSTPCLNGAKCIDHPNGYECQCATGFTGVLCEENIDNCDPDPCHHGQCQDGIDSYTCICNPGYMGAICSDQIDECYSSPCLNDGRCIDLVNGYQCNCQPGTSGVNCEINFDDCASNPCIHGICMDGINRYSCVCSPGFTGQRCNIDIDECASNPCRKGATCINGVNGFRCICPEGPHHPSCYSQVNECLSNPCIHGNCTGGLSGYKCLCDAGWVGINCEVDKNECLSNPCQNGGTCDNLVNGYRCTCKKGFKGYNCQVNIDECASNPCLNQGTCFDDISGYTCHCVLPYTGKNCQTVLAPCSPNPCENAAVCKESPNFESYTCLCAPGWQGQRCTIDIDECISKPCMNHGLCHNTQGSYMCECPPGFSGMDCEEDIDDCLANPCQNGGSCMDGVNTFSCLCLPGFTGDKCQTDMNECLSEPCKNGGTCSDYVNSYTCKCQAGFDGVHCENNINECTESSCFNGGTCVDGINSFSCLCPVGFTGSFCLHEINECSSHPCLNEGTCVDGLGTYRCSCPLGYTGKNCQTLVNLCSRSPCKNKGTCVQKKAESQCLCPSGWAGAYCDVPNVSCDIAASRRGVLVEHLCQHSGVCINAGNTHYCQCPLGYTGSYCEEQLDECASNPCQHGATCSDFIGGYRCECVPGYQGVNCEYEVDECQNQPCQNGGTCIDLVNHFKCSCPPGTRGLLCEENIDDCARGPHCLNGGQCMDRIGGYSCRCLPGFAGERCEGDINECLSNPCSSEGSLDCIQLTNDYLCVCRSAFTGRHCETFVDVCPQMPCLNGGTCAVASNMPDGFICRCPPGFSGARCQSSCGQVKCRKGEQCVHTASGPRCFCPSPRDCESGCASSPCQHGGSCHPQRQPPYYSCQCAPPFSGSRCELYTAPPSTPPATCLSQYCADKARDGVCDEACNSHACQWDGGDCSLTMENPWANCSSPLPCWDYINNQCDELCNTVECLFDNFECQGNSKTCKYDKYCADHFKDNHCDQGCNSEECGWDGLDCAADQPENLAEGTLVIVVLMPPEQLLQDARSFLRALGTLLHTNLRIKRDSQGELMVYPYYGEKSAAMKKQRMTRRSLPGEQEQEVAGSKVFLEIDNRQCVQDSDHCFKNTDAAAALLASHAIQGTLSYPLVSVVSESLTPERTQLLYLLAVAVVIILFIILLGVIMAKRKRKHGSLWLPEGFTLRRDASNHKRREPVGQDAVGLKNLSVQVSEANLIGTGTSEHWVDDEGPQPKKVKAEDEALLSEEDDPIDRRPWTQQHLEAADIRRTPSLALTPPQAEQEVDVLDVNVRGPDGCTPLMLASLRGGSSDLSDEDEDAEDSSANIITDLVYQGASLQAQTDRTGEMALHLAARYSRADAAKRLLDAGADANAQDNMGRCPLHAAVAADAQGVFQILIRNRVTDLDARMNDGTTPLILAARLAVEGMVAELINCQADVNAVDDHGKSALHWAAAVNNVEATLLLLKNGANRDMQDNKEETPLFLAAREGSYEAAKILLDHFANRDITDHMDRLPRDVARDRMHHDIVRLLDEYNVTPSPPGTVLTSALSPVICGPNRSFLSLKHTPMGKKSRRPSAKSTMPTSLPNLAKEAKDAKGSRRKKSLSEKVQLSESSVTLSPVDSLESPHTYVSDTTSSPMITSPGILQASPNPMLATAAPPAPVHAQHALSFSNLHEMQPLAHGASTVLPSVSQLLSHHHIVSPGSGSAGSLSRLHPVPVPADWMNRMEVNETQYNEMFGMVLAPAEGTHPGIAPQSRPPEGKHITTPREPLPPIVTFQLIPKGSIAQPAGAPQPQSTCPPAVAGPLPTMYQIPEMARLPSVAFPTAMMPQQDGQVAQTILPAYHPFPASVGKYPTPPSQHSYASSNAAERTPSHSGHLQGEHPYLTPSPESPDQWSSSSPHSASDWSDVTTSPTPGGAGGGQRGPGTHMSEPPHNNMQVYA
UniProt P78417: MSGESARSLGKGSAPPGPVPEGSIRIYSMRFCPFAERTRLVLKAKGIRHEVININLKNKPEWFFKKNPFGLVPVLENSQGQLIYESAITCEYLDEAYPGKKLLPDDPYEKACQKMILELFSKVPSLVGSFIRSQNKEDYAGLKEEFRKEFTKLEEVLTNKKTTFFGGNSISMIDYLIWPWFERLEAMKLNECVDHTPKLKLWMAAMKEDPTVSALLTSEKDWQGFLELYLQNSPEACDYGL
UniProt Q08257: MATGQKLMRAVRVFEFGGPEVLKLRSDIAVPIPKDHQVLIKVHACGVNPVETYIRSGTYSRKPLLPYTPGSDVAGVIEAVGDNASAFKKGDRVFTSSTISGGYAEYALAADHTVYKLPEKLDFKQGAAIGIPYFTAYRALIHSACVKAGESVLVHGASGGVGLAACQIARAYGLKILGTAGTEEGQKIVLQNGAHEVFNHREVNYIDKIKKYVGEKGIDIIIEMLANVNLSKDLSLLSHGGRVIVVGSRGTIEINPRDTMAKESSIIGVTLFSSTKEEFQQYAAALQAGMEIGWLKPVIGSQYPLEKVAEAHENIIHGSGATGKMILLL
UniProt P62140, whole entry: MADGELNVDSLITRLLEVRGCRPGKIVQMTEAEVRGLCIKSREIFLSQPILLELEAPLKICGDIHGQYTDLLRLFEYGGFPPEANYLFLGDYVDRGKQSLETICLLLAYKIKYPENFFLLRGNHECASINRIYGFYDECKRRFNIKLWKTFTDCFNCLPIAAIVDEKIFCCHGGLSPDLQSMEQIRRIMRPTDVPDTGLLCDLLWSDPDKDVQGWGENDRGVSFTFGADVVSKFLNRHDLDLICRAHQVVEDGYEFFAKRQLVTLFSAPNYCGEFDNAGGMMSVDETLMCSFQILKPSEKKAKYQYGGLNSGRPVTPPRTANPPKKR
UniProt P55789: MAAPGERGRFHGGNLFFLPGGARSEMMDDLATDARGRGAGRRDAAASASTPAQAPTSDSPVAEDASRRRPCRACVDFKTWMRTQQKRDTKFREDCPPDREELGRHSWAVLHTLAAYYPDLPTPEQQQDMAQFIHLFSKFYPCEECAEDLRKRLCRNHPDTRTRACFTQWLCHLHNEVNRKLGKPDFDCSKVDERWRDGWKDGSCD
UniProt P68036, whole entry: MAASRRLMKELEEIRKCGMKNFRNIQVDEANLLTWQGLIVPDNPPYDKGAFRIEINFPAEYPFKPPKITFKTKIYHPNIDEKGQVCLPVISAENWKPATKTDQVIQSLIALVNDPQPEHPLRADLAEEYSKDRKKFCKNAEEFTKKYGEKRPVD
UniProt P55884, whole entry: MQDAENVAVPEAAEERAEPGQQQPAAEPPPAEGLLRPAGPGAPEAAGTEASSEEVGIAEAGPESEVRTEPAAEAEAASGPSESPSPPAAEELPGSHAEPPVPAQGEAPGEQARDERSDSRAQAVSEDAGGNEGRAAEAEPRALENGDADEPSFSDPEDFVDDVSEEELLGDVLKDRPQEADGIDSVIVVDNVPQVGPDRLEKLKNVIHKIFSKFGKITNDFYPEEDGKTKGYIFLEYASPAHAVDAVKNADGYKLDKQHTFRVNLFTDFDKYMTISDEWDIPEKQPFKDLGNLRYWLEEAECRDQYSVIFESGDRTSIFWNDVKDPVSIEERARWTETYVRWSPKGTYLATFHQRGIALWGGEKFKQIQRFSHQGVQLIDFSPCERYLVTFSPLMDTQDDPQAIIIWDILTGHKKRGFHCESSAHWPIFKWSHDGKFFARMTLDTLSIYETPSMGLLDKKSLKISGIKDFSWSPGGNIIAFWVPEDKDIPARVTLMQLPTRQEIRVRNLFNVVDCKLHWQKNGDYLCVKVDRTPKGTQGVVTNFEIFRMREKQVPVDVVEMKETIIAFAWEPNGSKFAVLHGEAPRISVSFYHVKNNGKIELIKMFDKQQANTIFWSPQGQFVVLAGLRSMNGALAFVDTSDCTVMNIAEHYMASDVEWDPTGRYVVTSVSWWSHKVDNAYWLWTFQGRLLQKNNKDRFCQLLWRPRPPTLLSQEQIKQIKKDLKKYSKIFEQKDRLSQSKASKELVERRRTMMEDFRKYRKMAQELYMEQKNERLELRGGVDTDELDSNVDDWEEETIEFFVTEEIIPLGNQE
UniProt Q05519: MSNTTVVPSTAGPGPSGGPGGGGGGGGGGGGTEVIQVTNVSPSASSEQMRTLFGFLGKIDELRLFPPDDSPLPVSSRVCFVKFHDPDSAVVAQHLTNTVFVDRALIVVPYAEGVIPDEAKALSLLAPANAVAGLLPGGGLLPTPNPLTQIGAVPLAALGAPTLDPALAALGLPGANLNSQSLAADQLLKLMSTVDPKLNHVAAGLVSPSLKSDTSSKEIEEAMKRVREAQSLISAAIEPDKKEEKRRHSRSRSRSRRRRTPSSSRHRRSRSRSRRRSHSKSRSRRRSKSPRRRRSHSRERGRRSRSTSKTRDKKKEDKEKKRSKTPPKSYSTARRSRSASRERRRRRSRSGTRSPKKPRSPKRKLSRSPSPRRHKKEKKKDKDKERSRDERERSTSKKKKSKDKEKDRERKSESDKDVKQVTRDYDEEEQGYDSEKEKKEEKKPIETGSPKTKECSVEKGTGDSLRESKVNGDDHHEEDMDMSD
UniProt Q00688: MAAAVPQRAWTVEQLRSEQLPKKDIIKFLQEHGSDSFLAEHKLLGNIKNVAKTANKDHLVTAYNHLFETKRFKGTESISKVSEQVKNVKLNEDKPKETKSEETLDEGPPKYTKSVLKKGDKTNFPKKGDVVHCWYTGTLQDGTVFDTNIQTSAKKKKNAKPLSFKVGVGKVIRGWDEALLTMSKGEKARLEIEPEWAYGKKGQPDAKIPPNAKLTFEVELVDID

Compound in this assay: Nc1ncnc2c1ncn2[C@@H]1O[C@H](COP(=O)(O)OP(=O)(O)NP(=O)(O)O)[C@@H](O)[C@H]1O [adenylyl imidodiphosphate]
Kind of assay: NP40-soluble protein abundance relative to vehicle (solubility fold change) (ratio); higher = more soluble protein in presence of AMP-PNP. An outline of the steps:
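Values are fold changes against the detergent-processed vehicle, based on vsn-normalised intensities. Jurkat crude lysate was treated at eight concentrations from 0.1 to 10 mM (10 min at room temperature, then 3 min at 37 °C), solubilised with 0.8% NP40 and benzonase, ultracentrifuged and analysed by TMT-labelled LC-MS/MS over three independent experiments.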

± gives the standard deviation of the averaged measurements. The list shows a part of the results, in another mix than the full data.

Consider UniProt P61604 and related entries, for which the NP40-soluble protein abundance runs as follows: (concentration: 1mM) 0.956 ± 0.091; (concentration: 2mM) 1.04 ± 0.054; (concentration: 4mM) 0.973 ± 0.04; (concentration: 6mM) 0.901 ± 0.016; (concentration: 8mM) 0.884 ± 0.033; (concentration: 10mM) 0.916 ± 0.036.
Turning to UniProt P61129, the NP40-soluble protein abundance reads like this: (concentration: 1mM) 1.03 ± 0.058; (concentration: 2mM) 1.06 ± 0.02; (concentration: 4mM) 0.992 ± 0.096; (concentration: 6mM) 0.992 ± 0.02; (concentration: 8mM) 1.01 ± 0.06; (concentration: 10mM) 1 ± 0.11.
With UniProt P62857, the NP40-soluble protein abundance (concentration: 1mM) is 0.941 ± 0.041; the NP40-soluble protein abundance (concentration: 2mM) is 0.993 ± 0.078; the NP40-soluble protein abundance (concentration: 4mM) was found to be 0.919 ± 0.069; the NP40-soluble protein abundance (concentration: 6mM) was 0.837 ± 0.071; the NP40-soluble protein abundance (concentration: 8mM) was 0.74 ± 0.057; the NP40-soluble protein abundance (concentration: 10mM) came out at 0.847 ± 0.092.
On to UniProt P62820, for which the NP40-soluble protein abundance runs as follows: (concentration: 1mM) 1 ± 0.064; (concentration: 2mM) 1 ± 0.045; (concentration: 4mM) 0.97 ± 0.072; (concentration: 6mM) 0.967 ± 0.02; (concentration: 8mM) 0.943 ± 0.049; (concentration: 10mM) 0.958 ± 0.074.
Take NOTCH2 (UniProt Q04721): the NP40-soluble protein abundance runs as follows: (concentration: 1mM) 1.021 ± 0.0071; (concentration: 2mM) 1.06 ± 0.055; (concentration: 4mM) 1.02 ± 0.018; (concentration: 6mM) 0.9946 ± 0.0071; (concentration: 8mM) 0.973 ± 0.034; (concentration: 10mM) 0.975 ± 0.023.
On to GSTO1 (UniProt P78417), for which the NP40-soluble protein abundance by setting is: (concentration: 1mM) 0.945 ± 0.039; (concentration: 2mM) 0.8985 ± 0.0083; (concentration: 4mM) 0.925 ± 0.048; (concentration: 6mM) 1.03 ± 0.12; (concentration: 8mM) 1.06 ± 0.082; (concentration: 10mM) 0.994 ± 0.12.
As to CRYZ (UniProt Q08257), the NP40-soluble protein abundance (concentration: 1mM) was found to be 0.958 ± 0.0032; the NP40-soluble protein abundance (concentration: 2mM) came to 0.91 ± 0.063; the NP40-soluble protein abundance (concentration: 4mM) is 0.971 ± 0.033; the NP40-soluble protein abundance (concentration: 6mM) was determined as 1.03 ± 0.073; the NP40-soluble protein abundance (concentration: 8mM) was found to be 1.05 ± 0.04; the NP40-soluble protein abundance (concentration: 10mM) was 1.03 ± 0.024.
With UniProt P62495, the NP40-soluble protein abundance is, setting by setting: (concentration: 1mM) 0.947 ± 0.026; (concentration: 2mM) 0.85 ± 0.09; (concentration: 4mM) 0.895 ± 0.018; (concentration: 6mM) 0.914 ± 0.033; (concentration: 8mM) 0.94 ± 0.041; (concentration: 10mM) 0.859 ± 0.014.
In the case of UniProt P62140, the NP40-soluble protein abundance (concentration: 1mM) amounted to 1.05 ± 0.033; the NP40-soluble protein abundance (concentration: 2mM) stood at 1.01 ± 0.025; the NP40-soluble protein abundance (concentration: 4mM) was 1.04 ± 0.041; the NP40-soluble protein abundance (concentration: 6mM) was 1.02 ± 0.011; the NP40-soluble protein abundance (concentration: 8mM) is 1.06 ± 0.034; the NP40-soluble protein abundance (concentration: 10mM) stood at 1.01 ± 0.036.
As to HNRNPH2 (UniProt P55795), the NP40-soluble protein abundance (concentration: 1mM) is 0.9889 ± 0.0045; the NP40-soluble protein abundance (concentration: 2mM) was determined as 0.934 ± 0.086; the NP40-soluble protein abundance (concentration: 4mM) was 0.946 ± 0.028; the NP40-soluble protein abundance (concentration: 6mM) came out at 0.947 ± 0.023; the NP40-soluble protein abundance (concentration: 8mM) was found to be 0.9566 ± 0.0082; the NP40-soluble protein abundance (concentration: 10mM) is 0.908 ± 0.019.
Turning to “UniProt Q02447-3|H0Y6K5 and related entries”, the NP40-soluble protein abundance runs as follows: (concentration: 1mM) 1.02 ± 0.051; (concentration: 2mM) 1.03 ± 0.072; (concentration: 4mM) 1.02 ± 0.079; (concentration: 6mM) 1.03 ± 0.067; (concentration: 8mM) 1.02 ± 0.079; (concentration: 10mM) 0.993 ± 0.1.
UniProt P55789 and related entries: the NP40-soluble protein abundance runs as follows: (concentration: 1mM) 1.01 ± 0.056; (concentration: 2mM) 1.18 ± 0.14; (concentration: 4mM) 1.07 ± 0.094; (concentration: 6mM) 0.995 ± 0.1; (concentration: 8mM) 1.04 ± 0.071; (concentration: 10mM) 0.948 ± 0.09.
Take UniProt P68036 and related entries: the NP40-soluble protein abundance runs as follows: (concentration: 1mM) 0.972 ± 0.07; (concentration: 2mM) 1 ± 0.018; (concentration: 4mM) 0.911 ± 0.083; (concentration: 6mM) 0.979 ± 0.082; (concentration: 8mM) 0.962 ± 0.047; (concentration: 10mM) 0.932 ± 0.12.
Turning to UniProt Q06547 and related entries, the NP40-soluble protein abundance by setting is: (concentration: 1mM) 1.02 ± 0.05; (concentration: 2mM) 1.06 ± 0.06; (concentration: 4mM) 1.03 ± 0.071; (concentration: 6mM) 0.981 ± 0.035; (concentration: 8mM) 0.954 ± 0.035; (concentration: 10mM) 0.993 ± 0.12.
UniProt P55884 and related entries: the NP40-soluble protein abundance is, setting by setting: (concentration: 1mM) 0.991 ± 0.022; (concentration: 2mM) 0.94 ± 0.06; (concentration: 4mM) 1.05 ± 0.098; (concentration: 6mM) 1.16 ± 0.043; (concentration: 8mM) 1.23 ± 0.046; (concentration: 10mM) 1.28 ± 0.15.
Turning to UniProt Q05519 and related entries, the NP40-soluble protein abundance runs as follows: (concentration: 1mM) 1.12 ± 0.031; (concentration: 2mM) 1.18 ± 0.11; (concentration: 4mM) 1.21 ± 0.088; (concentration: 6mM) 1.26 ± 0.049; (concentration: 8mM) 1.34 ± 0.16; (concentration: 10mM) 1.51 ± 0.2.
FKBP3 (UniProt Q00688): the NP40-soluble protein abundance amounted to 1.06 ± 0.047 (concentration: 1mM); 1.122 ± 0.0017 (concentration: 2mM); 1.02 ± 0.052 (concentration: 4mM); 1.05 ± 0.055 (concentration: 6mM); 1.01 ± 0.028 (concentration: 8mM); 1.09 ± 0.097 (concentration: 10mM).
